Source: PubChem BioAssay AID720533 (National Center for Advancing Translational Sciences (NCATS), 2013)
Values joined by “and” are separate entries in the source; they are usually repeats but may differ in a detail not shown here. Identical values can stand only once. Out of some 18,000 compounds screened, about 750 (4.2%) were called active. Inconclusive results, whose numbers are uncertain, are shown with a selection of clear calls. Calls come from the whole dose curve; tested in HEK293 cells. Potencies of inconclusive entries are doubtful fits and often do not repeat.

Assay: qHTS for Inhibitors of binding or entry into cells for Lassa Virus
Conditions: Lassa virus pseudotyped entry inhibition, cell-based qHTS; activity change, negative = inhibition: at 49.2 µM (top of the series) unless noted
% is set by controls: 0 for no effect and ±100 for the full control effect; potency is the fitted concentration of half-maximal effect.

Structure (SMILES)	Potency	activity change, negative = inhibition
OCC1OC(n2cnc3c(NCc4ccco4)ncnc32)C(O)C1O (stereo not drawn)	inconclusive: 35.5 µM [inhibitor, single point]	–
CNCCCCc1cnc(C)c2[nH]c3ccccc3c12	inconclusive: 35.5 µM [inhibitor, single point]	–
CCCCCCCCCCCCCCCCSCC(COC)COP(=O)([O-])OCC[N+](C)(C)C (stereo not drawn)	inconclusive: 35.5 µM [inhibitor, single point]	–
C#CCC(Cc1cnc2nc(N)nc(N)c2n1)c1ccc(C(=O)N[C@@H](CCC(=O)O)C(=O)O)cc1 (stereo partly drawn)	inconclusive: 7.94 µM [inhibitor, full curve, poor fit]	–
CC(C)(C)OC(=O)NCCCCC1=CC2=CC(=O)C(C)(OC(=O)C3CCCC3)C(=O)C2=CO1 (stereo not drawn)	–	inactive: -2.24%
CNC(=O)[C@H]1O[C@@H](n2cnc3c(NCc4cccc(I)c4)nc(Cl)nc32)[C@H](O)[C@@H]1O	inconclusive: 28.2 µM [inhibitor, partial curve]	–
O=S(=O)(O)CC(S)CS (stereo not drawn)	inconclusive: 31.6 µM [inhibitor, partial curve]	–
Cc1c(C)n(Cc2ccccc2)c2ccc(C(=O)OCCN(C)C)cc12	inconclusive: 39.8 µM [inhibitor, partial curve, poor fit]	–
C=C(C)[C@@]12OC3(c4ccccc4)O[C@@H]1[C@@H]1[C@@H]4O[C@]4(CO)[C@@H](O)[C@]4(O)C(=O)C(C)=C[C@H]4[C@@]1(O3)[C@H](C)[C@H]2OC(=O)/C=C/C=C/c1ccccc1	inconclusive: 12.6 µM [inhibitor, partial curve]	–
COC(COC(N)=O)C1=C(N2CC2)C(=O)C(C)=C(N2CC2)C1=O (stereo not drawn)	inconclusive: 44.7 µM [inhibitor, partial curve, poor fit]	–
NC(=O)NS(=O)(=O)c1ccc(N)cc1	inconclusive: 35.5 µM [inhibitor, single point]	–
COc1cc(=O)n2c(c1C(=O)N(C)Cc1nonc1C)CCN(C(=O)c1cc(C)ccc1C)CC2	–	inactive: -7.58%
CN(C)CCc1cc2c(c3c1ccc1ccccc13)OCO2	inconclusive: 17.8 µM [inhibitor, single point]	–
CCCCCCCCCCCC[N+](C)(C)CCOc1ccccc1	inconclusive: 35.5 µM [inhibitor, single point]	–
c1ccc2c(c1)SCc1c-2[nH]c2ccccc12	inconclusive: 28.2 µM [inhibitor, single point]	–
Nc1ccc(CCN2CCN(c3cccc(C(F)(F)F)c3)CC2)cc1	inconclusive: 8.91 µM [inhibitor, full curve]	–
O=C(c1cscn1)N1CCOc2ccc(CN3CCC(Oc4cccnc4)CC3)cc2C1	–	inactive: -12.1%
COc1ccccc1C(=O)N[C@@H]1c2ccccc2C2(CCN(Cc3nc(C(C)C)cs3)CC2)[C@H]1O	inconclusive: 35.5 µM [inhibitor, single point]	–
COc1ccc(CN2CCOc3c(O)cc(-c4cc(C)c5ccc(F)cc5n4)cc3C2)c(O)c1	inconclusive: 7.08 µM [inhibitor, partial curve]	–
COc1ccc(CN2CCOc3ccc(CN4CCC(Oc5cccnc5)CC4)cc3C2)cc1	–	inactive: -13.9%
Brc1ccc2c(c1)c1cc(Br)ccc1n2CC1CO1 (stereo not drawn)	inconclusive: 7.94 µM [inhibitor, single point]	–

Structure (SMILES)	Potency	activity change, negative = inhibition
C/C=C/C/C=C/CCC(=O)[C@H]1O[C@H]1C(N)=O	active: 15.8 µM	–
CCCCCCC(=O)Cc1cc(OC)c(OC)cc1C=C(C(C)=O)C(=O)OC	–	inactive: 16.9% [at 8.59 µM]
COCCN(C(=O)CCl)c1c(C)cccc1C	–	inactive: -13.4%
CC(C)OC(=O)C(O)(c1ccc(Cl)cc1)c1ccc(Cl)cc1	inconclusive: 35.5 µM [inhibitor, single point]	–
Cc1nc(C)c(C(=O)NCc2nc(-c3cccc(NC(=O)c4ccccn4)c3)oc2C)s1	inconclusive: 35.5 µM [inhibitor, single point]	–
COC(=O)CC1C(C)(C)C(OC(C)=O)C2[C@H](OC(C)=O)[C@]34O[C@]2(O)[C@]1(C)C3CC[C@]1(C)C4=CC(=O)OC1c1ccoc1 (stereo partly drawn)	inconclusive: 25.1 µM [inhibitor, single point]	–
CCn1c2ccccc2c2cc(CN3CCOc4ccc(C(O)c5cccnc5)cc4C3)ccc21 (stereo not drawn)	inconclusive: 17.8 µM [inhibitor, single point]	–
CCN(CC)CCCCNc1ncc2cc(-c3cc(OC)cc(OC)c3)c(NC(=O)NC(C)(C)C)nc2n1	active: 12.6 µM	–
CCOC(=O)C(=Cc1ccccc1)C(=O)OCC	inconclusive: 25.1 µM [inhibitor, single point]	–
C=CCN1CC[C@]23CCCC[C@H]2[C@H]1Cc1ccc(O)cc13	inconclusive: 35.5 µM [inhibitor, single point]	–
CCCCC/C=C\C/C=C\C/C=C\C/C=C\CCCC(=O)O	inconclusive: 12.6 µM [inhibitor, partial curve] and inconclusive: 25.1 µM [inhibitor, partial curve]	–
Nc1ccc(OCc2ccccc2)cc1	inconclusive: 35.5 µM [inhibitor, single point]	–
CCN(CC)CCOCCOC(=O)C(CC)(CC)c1ccccc1	inconclusive: 35.5 µM [inhibitor, partial curve]	–
COc1ccc(NC(=O)C2CC23CCN(Cc2cccc4ncccc24)CC3)cc1Cl (stereo not drawn)	–	inactive: -28.6%
COC(=O)c1cccc(-c2cc(Cl)c3c(c2)CC(CNC(=O)c2cccnc2)O3)c1 (stereo not drawn)	–	inactive: -9.61%
N#C/C(=C\c1ccc(O)c(O)c1)C(=O)NCc1ccccc1	inconclusive: 25.1 µM [inhibitor, partial curve, poor fit]	–
CC(CN(C)C)CN1c2ccccc2Sc2ccccc21 (stereo not drawn)	inconclusive: 35.5 µM [inhibitor, single point]	–
O=C(C=Cc1ccccc1)Nc1cccc(C(=O)NC2CC2)c1	–	inactive: 42.9%
COc1ccc(-c2oc3cc(OC)c(OC(C)=O)c(OC)c3c(=O)c2OC)cc1OC(C)=O	active: 0.316 µM	–
Cc1ccc(-c2ccc(CN3C(CC(C)C)C(=O)N(Cc4cn(CC5CCCCC5)nn4)CCS3(=O)=O)cc2)cc1 (stereo not drawn)	–	inconclusive: -19% [inhibitor]
CCC1(C2CCN(Cc3ccccn3)CC2)NC(=O)N(CC2COc3ccccc3O2)C1=O (stereo not drawn)	–	inactive: -7.95%

Structure (SMILES)	Potency	activity change, negative = inhibition
C=CC[C@@]1(C(=O)OC)C=C[C@@H](C)[C@H](c2ccccc2Br)N1C(=O)C(F)(F)F	–	inconclusive: 2.41% [inhibitor] [at 8.59 µM]
COc1cccc(CN(CCC(C)C)S(=O)(=O)c2cc(Br)ccc2Br)c1	inconclusive: 35.3 µM [inhibitor, single point]	–
CCOC(=O)OC[C@H]1O[C@H](C#Cc2ccccc2)C=C[C@H]1OC(=O)OCC	–	inactive: -9.7% [at 8.59 µM]
CCCCC(=O)NCCc1c(Cc2ccccc2)[nH]c2ccccc12	inconclusive: 35.5 µM [inhibitor, single point]	–
CCCC=Cc1ccc(CN2C(CC(C)C)C(=O)N(Cc3cn(CC4CCCCC4)nn3)CCS2(=O)=O)cc1 (stereo not drawn)	inconclusive: 35.3 µM [inhibitor, single point]	–
CCC1CN(CC(=O)NC(C)c2cn(C)nc2C)Cc2cc(OC)ccc2O1 (stereo not drawn)	–	inactive: -12.9%
C[N+](C)(C)CC(O)CC(=O)[O-] (stereo not drawn)	–	inactive: -23.9%
CCCCC[C@H](O)/C=C/[C@H]1C(=O)C=C[C@@H]1C/C=C\CCCC(=O)O	inactive	–
COC(=O)C1=C(C(=O)OC)[C@@H]2Nc3ccccc3[C@@]23C[C@@H](C(=O)OC)N(C(=O)N2CCNC2=O)C3=N1	–	inactive: -4.36% [at 8.59 µM]
CC(C)N1CCN(c2ccc(C(=O)c3c(-c4ccc(O)cc4)sc4cc(O)ccc34)cc2)CC1	inconclusive: 35.5 µM [inhibitor, single point]	–
Cc1ccc(-c2cc(=O)c3ccc(Cl)cc3[nH]2)cc1	–	inactive: 0.446%
C=CCOC(=O)C(C(C)=O)[C@@H](NC(=O)OC)c1cccs1 (stereo partly drawn)	–	inactive: -15.4% [at 8.59 µM]
Cc1cccc(C(=O)N2CCC(=O)N([C@H](COCc3cccc(C(F)(F)F)c3)Cc3ccccc3)CC2)c1	inconclusive: 10 µM [inhibitor, partial curve, poor fit]	–
CCCCCCC(C)(C)c1ccc([C@@H]2C[C@H](O)CC[C@@H]2CCCO)c(O)c1	inconclusive: 35.5 µM [inhibitor, single point]	–
NC(=O)N/N=C/c1ccc(Oc2ccc(F)cc2)cc1	–	inactive: -2.83%
O=C(CCC1CCN(Cc2ccccc2)CC1)c1ccc2c(c1)NCCCC2	inconclusive: 31.6 µM [inhibitor, single point]	–
CCCN1CCC(Oc2cc(Nc3nc(Nc4cccc(F)c4C(N)=O)c4cc[nH]c4n3)c(OC)cc2Cl)CC1	inconclusive: 12.5 µM [inhibitor, partial curve, poor fit]	–
Cc1cccc(CNc2ccnc(-c3cccc(NS(C)(=O)=O)c3)n2)c1	inconclusive: 20 µM [inhibitor, single point]	–
COc1cc2oc(=O)cc(CN3CCOCC3)c2cc1Cl	–	inactive: 6.67%
CCOC(=O)C1=C(C)NC(=S)NC1c1cccc(O)c1 (stereo not drawn)	inconclusive: 35.5 µM [inhibitor, single point]	–
CC[C@H]1OC(=O)[C@H](C)[C@@H](O[C@H]2C[C@@](C)(OC)[C@@H](O)[C@H](C)O2)[C@H](C)[C@@H](O[C@@H]2O[C@H](C)C[C@H](N(C)C)[C@H]2O)[C@](C)(O)C[C@@H](C)CN(C)[C@H](C)[C@@H](O)[C@]1(C)O	inconclusive: 39.8 µM [inhibitor, single point]	–
